For part of these data: For expression read-outs the peptide stands for its source gene, whose mRNA was measured; the gene is not named for every peptide.
How the values were obtained:
[1] = tested on: HLA-A*02; experiment: Identification and relative LC-MS quantitation of HLA-A*02-presented tumor-associated peptides on tissue samples (presentation profiles, Tables 13A, 13B, 15, FIG. 1); design: species or system human; key to Presentation score NHL / Presentation score CLL / Presentation score BRCA / Presentation score AML / Presentation score GB / Presentation score NSCLC / Presentation score GBC_CCC / Presentation score UEC / Presentation score MEL / Presentation score OSCAR / Presentation score GC / Presentation score UBC / Presentation score OC / Presentation score RCC / Presentation score CRC / Presentation score PCA / Presentation score HCC / Presentation score PC / Presentation score SCLC: specifically presented on tumors (++++); very highly over-presented on tumors compared to a panel of normal tissues (+++); highly over-presented on tumors compared to a panel of normal tissues (++); over-presented on tumors compared to a panel of normal tissues (+); details: for Peptide Presentation on cancer entities: HLA-A*02-binding tumor-associated peptides
[2] = tested on: source genes (mRNA); experiment: Gene and exon expression of source genes, TCGA tumor samples compared with normal tissue samples (Lonsdale, 2013) (Table 17); design: species or system human; details: for Over-expression category of source gene (target coverage), BLCA: BLCA = Bladder urothelial carcinoma (N = 408); for Over-expression category of source gene (target coverage), BLCA / Over-expression category of source gene (target coverage), CHOL / Over-expression category of source gene (target coverage), COAD / Over-expression category of source gene (target coverage), DLBC / Over-expression category of source gene (target coverage), ESCA / Over-expression category of source gene (target coverage), GBM / Over-expression category of source gene (target coverage), KICH / Over-expression category of source gene (target coverage), KIRC / Over-expression category of source gene (target coverage), KIRP / Over-expression category of source gene (target coverage), LAML / Over-expression category of source gene (target coverage), LGG / Over-expression category of source gene (target coverage), LIHC / Over-expression category of source gene (target coverage), LUAD / Over-expression category of source gene (target coverage), LUSC / Over-expression category of source gene (target coverage), OV / Over-expression category of source gene (target coverage), PAAD / Over-expression category of source gene (target coverage), PRAD / Over-expression category of source gene (target coverage), READ / Over-expression category of source gene (target coverage), SKCM / Over-expression category of source gene (target coverage), STAD / Over-expression category of source gene (target coverage), UCEC: same cutoff; for Over-expression category of source gene (target coverage), BRCA: BRCA = Breast cancer (N = 1104), tumors more than 2-fold above highest 75% percentile of normal tissues; for Over-expression category of source gene (target coverage), CHOL: CHOL = Cholangiocarcinoma (N = 36); for Over-expression category of source gene (target coverage), COAD: COAD = Colon and rectal adenocarcinoma (N = 462); for Over-expression category of source gene (target coverage), DLBC: DLBC = Lymphoid neoplasm diffuse large B-cell lymphoma (N = 48); for Over-expression category of source gene (target coverage), ESCA: ESCA = Esophageal cancer (N = 185); for Over-expression category of source gene (target coverage), GBM: GBM = Glioblastoma multiforme (N = 169); for Over-expression category of source gene (target coverage), KICH: KICH = Kidney chromophobe (N = 66); for Over-expression category of source gene (target coverage), KIRC: KIRC = Clear cell kidney carcinoma (N = 534); for Over-expression category of source gene (target coverage), KIRP: KIRP = Papillary kidney carcinoma (N = 291); for Over-expression category of source gene (target coverage), LAML: LAML = Acute Myeloid Leukemia (N = 173); for Over-expression category of source gene (target coverage), LGG: LGG = Lower grade glioma (N = 534); for Over-expression category of source gene (target coverage), LIHC: LIHC = Liver hepatocellular carcinoma (N = 374); for Over-expression category of source gene (target coverage), LUAD: LUAD = Lung adenocarcinoma (N = 517); for Over-expression category of source gene (target coverage), LUSC: LUSC = Lung squamous cell carcinoma (N = 503); for Over-expression category of source gene (target coverage), OV: OV = Ovarian serous cystadenocarcinoma (N = 309); for Over-expression category of source gene (target coverage), PAAD: PAAD = Pancreatic ductal adenocarcinoma (N = 179); for Over-expression category of source gene (target coverage), PRAD: PRAD = Prostate adenocarcinoma (N = 498); for Over-expression category of source gene (target coverage), READ: READ = Colon and rectal adenocarcinoma (N = 167); for Over-expression category of source gene (target coverage), SKCM: SKCM = Skin cutaneous melanoma (N = 473); for Over-expression category of source gene (target coverage), STAD: STAD = Stomach adenocarcinoma (N = 415); for Over-expression category of source gene (target coverage), UCEC: UCEC = Uterine corpus endometrial carcinoma (N = 546)
[3] = Table 13A, cancer entities on which the peptide was found presented

Substance | Peptide Presentation on cancer entities [1, 3] | Over-expression category of source gene (target coverage), BLCA [2] | Over-expression category of source gene (target coverage), BRCA [2] | Over-expression category of source gene (target coverage), CHOL [2] | Over-expression category of source gene (target coverage), COAD [2] | Over-expression category of source gene (target coverage), DLBC [2] | Over-expression category of source gene (target coverage), ESCA [2] | Over-expression category of source gene (target coverage), GBM [2] | Over-expression category of source gene (target coverage), KICH [2] | Over-expression category of source gene (target coverage), KIRC [2] | Over-expression category of source gene (target coverage), KIRP [2] | Over-expression category of source gene (target coverage), LAML [2] | Over-expression category of source gene (target coverage), LGG [2] | Over-expression category of source gene (target coverage), LIHC [2] | Over-expression category of source gene (target coverage), LUAD [2] | Over-expression category of source gene (target coverage), LUSC [2] | Over-expression category of source gene (target coverage), OV [2] | Over-expression category of source gene (target coverage), PAAD [2] | Over-expression category of source gene (target coverage), PRAD [2] | Over-expression category of source gene (target coverage), READ [2] | other results
258: peptide found in BCCIP (gene looked up) (LLSERFINV; listed as Homo sapiens) [compound 258] | HCC, PCA | A (>=50% of tumors above the cutoff) | A (>=50% of tumors above the cutoff) | A (>=50% of tumors above the cutoff) | A (>=50% of tumors above the cutoff) | A (>=50% of tumors above the cutoff) | A (>=50% of tumors above the cutoff) | A (>=50% of tumors above the cutoff) | A (>=50% of tumors above the cutoff) | A (>=50% of tumors above the cutoff) | A (>=50% of tumors above the cutoff) | A (>=50% of tumors above the cutoff) | A (>=50% of tumors above the cutoff) | A (>=50% of tumors above the cutoff) | A (>=50% of tumors above the cutoff) | A (>=50% of tumors above the cutoff) | A (>=50% of tumors above the cutoff) | A (>=50% of tumors above the cutoff) | A (>=50% of tumors above the cutoff) | A (>=50% of tumors above the cutoff) | Presentation score HCC ([1]; HLA-A*02 peptides, hepatocellular carcinoma (N = 16) vs panel of normal tissues (N = 262)): ++++; Presentation score PCA ([1]; HLA-A*02 peptides, prostate cancer and benign prostate hyperplasia (N = 39) vs panel of normal tissues (N = 262)): ++++; Over-expression category of source gene (target coverage), SKCM [2]: A (>=50% of tumors above the cutoff); Over-expression category of source gene (target coverage), STAD [2]: A (>=50% of tumors above the cutoff); Over-expression category of source gene (target coverage), UCEC [2]: A (>=50% of tumors above the cutoff)
135: peptide found in CHUK (gene looked up) (HLSTIIHEA; listed as Homo sapiens) [compound 135] | NSCLC, CLL | B (>= 20% of tumors above the cutoff, but <50%) | A (>=50% of tumors above the cutoff) | A (>=50% of tumors above the cutoff) | A (>=50% of tumors above the cutoff) | A (>=50% of tumors above the cutoff) | A (>=50% of tumors above the cutoff) | A (>=50% of tumors above the cutoff) | A (>=50% of tumors above the cutoff) | A (>=50% of tumors above the cutoff) | A (>=50% of tumors above the cutoff) | A (>=50% of tumors above the cutoff) | A (>=50% of tumors above the cutoff) | B (>= 20% of tumors above the cutoff, but <50%) | A (>=50% of tumors above the cutoff) | A (>=50% of tumors above the cutoff) | A (>=50% of tumors above the cutoff) | A (>=50% of tumors above the cutoff) | A (>=50% of tumors above the cutoff) | A (>=50% of tumors above the cutoff) | Presentation score CLL ([1]; HLA-A*02 peptides, chronic lymphocytic leukemia (N = 17) vs panel of normal tissues (N = 262)): ++++; Presentation score NSCLC ([1]; HLA-A*02 peptides, non-small cell lung cancer (N = 90) vs panel of normal tissues (N = 262)): ++++; Peptide Presentation on cancer entities ([1]; Table 13B, presentation on additional cancer entities): CLL, UEC; Over-expression category of source gene (target coverage), SKCM [2]: A (>=50% of tumors above the cutoff); Over-expression category of source gene (target coverage), STAD [2]: A (>=50% of tumors above the cutoff); Over-expression category of source gene (target coverage), UCEC [2]: B (>= 20% of tumors above the cutoff, but <50%)

Reference: patent US20170189504A1, “NOVEL PEPTIDES AND COMBINATION OF PEPTIDES FOR USE IN IMMUNOTHERAPY AGAINST VARIOUS CANCERS” (immatics biotechnologies GmbH, priority 2015, published 2017)
